{"sequences": {"note": "Protein sequences, listed by entry. Tags and fused reporters are not part of them. Lines headed by an entry give the natural chain unless they say otherwise; changes in a name come on top.", "UniProt Q9H4L4": "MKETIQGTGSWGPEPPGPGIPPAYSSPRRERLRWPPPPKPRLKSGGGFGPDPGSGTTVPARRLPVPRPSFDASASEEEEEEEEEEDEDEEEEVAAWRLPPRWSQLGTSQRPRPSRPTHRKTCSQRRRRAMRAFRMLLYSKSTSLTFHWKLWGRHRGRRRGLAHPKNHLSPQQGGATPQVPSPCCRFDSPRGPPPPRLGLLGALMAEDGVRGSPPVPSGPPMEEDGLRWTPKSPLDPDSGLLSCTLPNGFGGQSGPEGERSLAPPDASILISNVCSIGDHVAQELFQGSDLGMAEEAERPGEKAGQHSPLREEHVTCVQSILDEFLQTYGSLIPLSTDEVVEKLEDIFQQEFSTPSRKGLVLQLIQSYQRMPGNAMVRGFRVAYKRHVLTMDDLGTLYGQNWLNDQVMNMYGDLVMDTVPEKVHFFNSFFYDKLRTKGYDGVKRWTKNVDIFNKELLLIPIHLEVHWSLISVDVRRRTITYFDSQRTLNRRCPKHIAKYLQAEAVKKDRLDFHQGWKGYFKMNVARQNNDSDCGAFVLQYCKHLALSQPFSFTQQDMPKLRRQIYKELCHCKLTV", "UniProt Q9HC38": "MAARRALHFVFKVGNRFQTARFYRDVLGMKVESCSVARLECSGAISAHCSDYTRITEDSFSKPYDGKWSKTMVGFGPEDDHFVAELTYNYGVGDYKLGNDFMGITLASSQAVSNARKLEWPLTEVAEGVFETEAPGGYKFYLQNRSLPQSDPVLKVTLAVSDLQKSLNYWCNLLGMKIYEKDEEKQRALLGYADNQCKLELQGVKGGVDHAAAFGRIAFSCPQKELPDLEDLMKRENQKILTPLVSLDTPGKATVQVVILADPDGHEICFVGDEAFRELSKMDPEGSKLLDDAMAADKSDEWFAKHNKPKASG", "UniProt Q9HAB8": "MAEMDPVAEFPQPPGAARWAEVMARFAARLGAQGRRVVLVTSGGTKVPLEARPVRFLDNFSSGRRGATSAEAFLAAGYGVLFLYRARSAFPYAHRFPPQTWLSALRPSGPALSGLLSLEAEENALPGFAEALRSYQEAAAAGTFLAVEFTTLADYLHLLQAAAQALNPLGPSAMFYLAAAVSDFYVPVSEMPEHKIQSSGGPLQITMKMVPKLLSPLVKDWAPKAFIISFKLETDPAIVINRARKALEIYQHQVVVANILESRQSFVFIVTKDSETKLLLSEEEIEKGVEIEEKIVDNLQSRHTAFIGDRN", "UniProt Q9H900": "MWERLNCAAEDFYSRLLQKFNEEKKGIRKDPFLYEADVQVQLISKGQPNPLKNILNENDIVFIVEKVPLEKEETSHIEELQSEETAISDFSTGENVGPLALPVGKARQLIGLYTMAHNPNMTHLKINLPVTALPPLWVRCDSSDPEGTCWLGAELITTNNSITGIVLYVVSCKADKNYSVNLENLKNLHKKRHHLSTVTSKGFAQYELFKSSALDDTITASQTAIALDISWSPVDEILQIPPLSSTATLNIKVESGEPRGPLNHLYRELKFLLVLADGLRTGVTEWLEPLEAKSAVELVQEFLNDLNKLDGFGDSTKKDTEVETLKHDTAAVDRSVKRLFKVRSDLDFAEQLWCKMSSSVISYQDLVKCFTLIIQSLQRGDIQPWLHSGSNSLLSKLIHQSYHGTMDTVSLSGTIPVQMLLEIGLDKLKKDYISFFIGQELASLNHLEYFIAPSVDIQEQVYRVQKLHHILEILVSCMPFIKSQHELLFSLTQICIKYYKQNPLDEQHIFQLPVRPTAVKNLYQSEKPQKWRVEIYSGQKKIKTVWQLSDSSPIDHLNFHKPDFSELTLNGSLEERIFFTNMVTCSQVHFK", "UniProt Q9HCC0": "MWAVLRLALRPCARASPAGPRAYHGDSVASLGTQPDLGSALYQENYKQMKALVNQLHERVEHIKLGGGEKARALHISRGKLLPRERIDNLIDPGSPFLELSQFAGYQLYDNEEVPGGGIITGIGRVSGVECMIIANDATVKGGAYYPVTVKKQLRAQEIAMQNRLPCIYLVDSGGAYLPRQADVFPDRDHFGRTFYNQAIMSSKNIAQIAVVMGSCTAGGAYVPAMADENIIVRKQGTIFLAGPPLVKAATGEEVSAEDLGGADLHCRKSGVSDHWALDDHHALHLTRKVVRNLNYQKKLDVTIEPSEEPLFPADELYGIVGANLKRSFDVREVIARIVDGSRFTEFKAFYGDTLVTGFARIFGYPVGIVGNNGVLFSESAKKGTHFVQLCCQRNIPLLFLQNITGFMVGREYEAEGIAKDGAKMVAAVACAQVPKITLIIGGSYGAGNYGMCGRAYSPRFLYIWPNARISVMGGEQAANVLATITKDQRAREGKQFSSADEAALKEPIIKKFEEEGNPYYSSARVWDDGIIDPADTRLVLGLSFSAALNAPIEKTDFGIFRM", "UniProt Q9H9S4": "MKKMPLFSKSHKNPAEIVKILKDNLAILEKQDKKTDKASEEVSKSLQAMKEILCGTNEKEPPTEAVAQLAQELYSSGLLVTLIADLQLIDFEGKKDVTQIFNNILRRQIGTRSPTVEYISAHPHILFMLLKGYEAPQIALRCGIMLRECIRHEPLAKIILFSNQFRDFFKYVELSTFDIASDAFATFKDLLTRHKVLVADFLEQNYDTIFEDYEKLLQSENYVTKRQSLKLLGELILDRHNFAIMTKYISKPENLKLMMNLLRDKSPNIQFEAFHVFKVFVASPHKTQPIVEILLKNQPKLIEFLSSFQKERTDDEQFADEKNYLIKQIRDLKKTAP", "UniProt Q9H9Y2": "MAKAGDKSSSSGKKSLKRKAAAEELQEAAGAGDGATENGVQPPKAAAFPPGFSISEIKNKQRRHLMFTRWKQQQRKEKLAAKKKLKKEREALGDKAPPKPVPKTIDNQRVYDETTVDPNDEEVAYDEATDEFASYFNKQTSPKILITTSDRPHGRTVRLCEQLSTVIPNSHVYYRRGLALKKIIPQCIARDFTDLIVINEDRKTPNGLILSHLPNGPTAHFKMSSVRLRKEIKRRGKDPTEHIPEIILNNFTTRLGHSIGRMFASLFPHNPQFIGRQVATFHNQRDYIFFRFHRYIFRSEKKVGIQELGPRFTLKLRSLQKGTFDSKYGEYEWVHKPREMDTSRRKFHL", "UniProt Q9H6W3": "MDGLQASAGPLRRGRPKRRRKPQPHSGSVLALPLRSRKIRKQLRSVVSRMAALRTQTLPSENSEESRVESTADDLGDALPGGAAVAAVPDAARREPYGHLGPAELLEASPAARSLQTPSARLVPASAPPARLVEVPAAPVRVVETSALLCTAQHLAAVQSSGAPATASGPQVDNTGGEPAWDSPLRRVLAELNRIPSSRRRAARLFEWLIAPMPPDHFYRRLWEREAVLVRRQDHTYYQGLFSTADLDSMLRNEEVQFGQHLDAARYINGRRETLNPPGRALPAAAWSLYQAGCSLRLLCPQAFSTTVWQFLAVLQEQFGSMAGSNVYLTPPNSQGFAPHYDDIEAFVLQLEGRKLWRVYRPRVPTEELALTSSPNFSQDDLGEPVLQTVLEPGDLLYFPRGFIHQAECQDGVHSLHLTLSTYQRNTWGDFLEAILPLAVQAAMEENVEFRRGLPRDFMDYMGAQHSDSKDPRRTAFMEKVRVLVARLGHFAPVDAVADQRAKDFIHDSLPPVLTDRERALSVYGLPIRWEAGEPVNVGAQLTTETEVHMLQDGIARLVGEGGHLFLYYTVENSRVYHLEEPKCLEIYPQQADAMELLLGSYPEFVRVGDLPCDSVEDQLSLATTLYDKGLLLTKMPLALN", "UniProt Q9H4A3": "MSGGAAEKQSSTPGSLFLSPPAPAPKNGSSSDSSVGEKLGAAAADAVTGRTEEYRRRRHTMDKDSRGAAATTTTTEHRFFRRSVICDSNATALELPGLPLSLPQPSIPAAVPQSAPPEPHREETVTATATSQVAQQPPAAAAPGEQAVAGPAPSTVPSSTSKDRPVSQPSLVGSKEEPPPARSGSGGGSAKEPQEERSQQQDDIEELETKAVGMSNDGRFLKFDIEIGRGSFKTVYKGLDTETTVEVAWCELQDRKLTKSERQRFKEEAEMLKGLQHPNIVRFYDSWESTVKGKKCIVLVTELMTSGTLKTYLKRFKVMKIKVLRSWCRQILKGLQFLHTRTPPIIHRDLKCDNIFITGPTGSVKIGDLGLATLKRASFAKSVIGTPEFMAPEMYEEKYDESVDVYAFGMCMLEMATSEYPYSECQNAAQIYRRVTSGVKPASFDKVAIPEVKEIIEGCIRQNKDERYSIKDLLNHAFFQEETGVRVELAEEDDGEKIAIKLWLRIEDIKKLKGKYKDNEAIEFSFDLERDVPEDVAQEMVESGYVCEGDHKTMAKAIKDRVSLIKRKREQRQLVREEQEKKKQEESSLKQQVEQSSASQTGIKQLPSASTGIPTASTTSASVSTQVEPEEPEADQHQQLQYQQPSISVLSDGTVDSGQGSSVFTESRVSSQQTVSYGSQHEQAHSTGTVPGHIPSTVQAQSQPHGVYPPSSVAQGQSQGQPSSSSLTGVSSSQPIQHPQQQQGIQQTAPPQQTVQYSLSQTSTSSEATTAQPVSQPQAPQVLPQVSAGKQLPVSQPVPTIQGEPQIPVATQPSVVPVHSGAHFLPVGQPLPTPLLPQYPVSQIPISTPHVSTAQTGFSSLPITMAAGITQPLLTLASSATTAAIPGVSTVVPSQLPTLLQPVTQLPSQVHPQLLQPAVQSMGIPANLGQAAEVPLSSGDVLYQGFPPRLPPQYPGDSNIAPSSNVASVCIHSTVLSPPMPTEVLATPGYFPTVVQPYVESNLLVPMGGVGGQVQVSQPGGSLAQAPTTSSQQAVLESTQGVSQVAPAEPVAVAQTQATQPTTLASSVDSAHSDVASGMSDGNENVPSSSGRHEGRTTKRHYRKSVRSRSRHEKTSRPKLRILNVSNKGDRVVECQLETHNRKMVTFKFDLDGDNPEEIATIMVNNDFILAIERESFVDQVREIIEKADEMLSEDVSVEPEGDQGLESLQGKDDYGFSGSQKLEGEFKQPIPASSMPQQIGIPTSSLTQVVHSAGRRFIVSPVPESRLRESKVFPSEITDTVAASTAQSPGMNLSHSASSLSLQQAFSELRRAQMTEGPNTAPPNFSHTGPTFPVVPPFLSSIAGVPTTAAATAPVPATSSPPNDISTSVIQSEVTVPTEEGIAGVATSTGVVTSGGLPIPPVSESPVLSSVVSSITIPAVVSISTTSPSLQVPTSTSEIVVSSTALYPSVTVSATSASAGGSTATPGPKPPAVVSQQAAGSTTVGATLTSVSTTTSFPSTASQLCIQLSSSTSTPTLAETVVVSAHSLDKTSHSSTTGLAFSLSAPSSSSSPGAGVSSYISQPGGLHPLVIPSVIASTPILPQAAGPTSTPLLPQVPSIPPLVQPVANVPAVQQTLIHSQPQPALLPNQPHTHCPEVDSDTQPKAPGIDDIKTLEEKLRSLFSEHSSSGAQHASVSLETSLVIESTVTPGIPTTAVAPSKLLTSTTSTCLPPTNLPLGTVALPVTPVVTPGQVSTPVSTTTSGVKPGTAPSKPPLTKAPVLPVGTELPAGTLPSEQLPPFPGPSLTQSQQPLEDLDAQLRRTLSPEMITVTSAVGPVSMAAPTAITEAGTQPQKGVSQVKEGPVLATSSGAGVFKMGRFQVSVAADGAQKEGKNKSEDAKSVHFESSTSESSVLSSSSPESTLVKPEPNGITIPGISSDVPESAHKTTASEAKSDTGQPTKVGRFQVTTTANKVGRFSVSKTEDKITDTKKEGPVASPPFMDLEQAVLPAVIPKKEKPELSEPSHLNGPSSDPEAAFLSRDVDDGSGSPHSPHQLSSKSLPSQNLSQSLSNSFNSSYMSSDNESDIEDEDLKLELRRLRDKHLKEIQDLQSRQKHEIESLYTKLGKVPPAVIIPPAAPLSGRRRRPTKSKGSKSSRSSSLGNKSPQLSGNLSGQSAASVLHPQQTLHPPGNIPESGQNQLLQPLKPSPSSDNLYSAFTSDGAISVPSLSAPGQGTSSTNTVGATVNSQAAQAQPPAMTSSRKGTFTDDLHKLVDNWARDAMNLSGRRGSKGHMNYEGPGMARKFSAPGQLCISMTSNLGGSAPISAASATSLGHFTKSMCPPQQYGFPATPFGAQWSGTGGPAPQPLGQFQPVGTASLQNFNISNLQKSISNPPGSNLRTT"}, "source": "the supplement of paper PMC12819154", "about": "“High-throughput peptide-centric local stability assay extends protein–ligand identification to membrane proteins, tissues and bacteria” (Nature Structural & Molecular Biology, 2025)", "note": "Some of the results follow. Most values lie at the level of the controls, where differences are scatter."}
{"compound": "Cc1nc(Nc2ncc(C(=O)Nc3c(C)cccc3Cl)s2)cc(N2CCN(CCO)CC2)n1 [dasatinib]", "assay": "log2 fold change of tryptic peptide abundance, ligand vs vehicle (limited proteolysis) (log2 ratio); higher = more trypsin-susceptible (destabilized)", "conditions": "ligand concentration: 5 uM; sample: K562 cleared lysate"}
{"target": "SENP3 (peptide sequence: WSQLGTSQR, peptide start residue: 102) (UniProt Q9H4L4)", "log2 fold change": -0.63}
{"target": "GLOD4 (peptide sequence: ALLGYADNQCK, peptide start residue: 188) (UniProt Q9HC38)", "log2 fold change": -0.207}
{"target": "PPCS (peptide sequence: WAEVMAR, peptide start residue: 19) (UniProt Q9HAB8)", "log2 fold change": -0.244}
{"target": "ZWILCH (peptide sequence: DTEVETLK, peptide start residue: 319) (UniProt Q9H900)", "log2 fold change": -0.158}
{"target": "TAF9B (peptide sequence: DALVMAQILK, peptide start residue: 15) (UniProt Q9HBM6)", "log2 fold change": -0.0841}
{"target": "MCCC2 (peptide sequence: GTHFVQLCCQR, peptide start residue: 384) (UniProt Q9HCC0)", "log2 fold change": 0.163}
{"target": "CAB39L (peptide sequence: VFVASPHKTQPIVEILLK, peptide start residue: 279) (UniProt Q9H9S4)", "log2 fold change": 0.389}
{"target": "RPF1 (peptide sequence: MFASLFPHNPQFIGR, peptide start residue: 262) (UniProt Q9H9Y2)", "log2 fold change": -0.274}
{"target": "UniProt Q9H6W3 (peptide sequence: LVEVPAAPVR, peptide start residue: 132)", "log2 fold change": 0.169}
{"target": "WNK1 (peptide sequence: FYDSWESTVK, peptide start residue: 283) (UniProt Q9H4A3)", "log2 fold change": -0.187}
{"target": "ADNP (peptide sequence: SLNGAVPLGSNAR, peptide start residue: 204) (UniProt Q9H2P0)", "log2 fold change": 0.111}
